# According to article PMC6915745, “TRIB3 supports breast cancer stemness by suppressing FOXO1 degradation and enhancing SOX2 transcription” (Nature Communications, 2019):
# The chains behind the UniProt entries cited, without tags or fusion partners. Where a name states a change or a piece, a line headed by the entry shows the natural chain unless it says otherwise.
# UniProt P48431: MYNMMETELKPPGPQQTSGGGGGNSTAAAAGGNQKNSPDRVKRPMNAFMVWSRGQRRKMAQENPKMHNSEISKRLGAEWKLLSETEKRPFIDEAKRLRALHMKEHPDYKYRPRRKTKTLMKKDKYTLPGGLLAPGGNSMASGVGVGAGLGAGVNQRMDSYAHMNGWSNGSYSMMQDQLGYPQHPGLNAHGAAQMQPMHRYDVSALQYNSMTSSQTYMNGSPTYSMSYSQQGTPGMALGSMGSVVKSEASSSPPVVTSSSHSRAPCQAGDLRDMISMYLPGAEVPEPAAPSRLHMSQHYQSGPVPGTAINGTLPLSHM
# Construct, isoform or probe ends are uncertain for at least one entry. At least one result comes from cells or an extract, where the contact may be indirect.
# Molecular target: SOX2 (UniProt P48431)
# Experiment: EMSA
# Details: nuclear extract of SOX2-expressing HEK293, LightShift Chemiluminescent EMSA kit reaction buffer (composition and pH not stated), 20 min at room temperature, 6% polyacrylamide gel, protein in an extract, protein details: Myc tag (MCF7-SOX2-Myc in Methods), label: biotin
sequence,measurement,value
ATCTCCTCCCCGCGCCGGAGCCCCTGTTCCTCATTTCTAG (double strand) [EMSA #6],binding result,binds
